The values below come from US11579152B2, “Engineered hERG channel proteins, vesicles and methods of identifying small molecule pharmacological agents” (priority 2016, dated 2023).

The chains behind the UniProt entries cited, without tags or fusion partners. A line that says so, or that is headed by a name, gives the form on record, which may keep a tag or linker.
UniProt Q12809, with tags, fused parts or gaps DEL141-380/DEL871-1005: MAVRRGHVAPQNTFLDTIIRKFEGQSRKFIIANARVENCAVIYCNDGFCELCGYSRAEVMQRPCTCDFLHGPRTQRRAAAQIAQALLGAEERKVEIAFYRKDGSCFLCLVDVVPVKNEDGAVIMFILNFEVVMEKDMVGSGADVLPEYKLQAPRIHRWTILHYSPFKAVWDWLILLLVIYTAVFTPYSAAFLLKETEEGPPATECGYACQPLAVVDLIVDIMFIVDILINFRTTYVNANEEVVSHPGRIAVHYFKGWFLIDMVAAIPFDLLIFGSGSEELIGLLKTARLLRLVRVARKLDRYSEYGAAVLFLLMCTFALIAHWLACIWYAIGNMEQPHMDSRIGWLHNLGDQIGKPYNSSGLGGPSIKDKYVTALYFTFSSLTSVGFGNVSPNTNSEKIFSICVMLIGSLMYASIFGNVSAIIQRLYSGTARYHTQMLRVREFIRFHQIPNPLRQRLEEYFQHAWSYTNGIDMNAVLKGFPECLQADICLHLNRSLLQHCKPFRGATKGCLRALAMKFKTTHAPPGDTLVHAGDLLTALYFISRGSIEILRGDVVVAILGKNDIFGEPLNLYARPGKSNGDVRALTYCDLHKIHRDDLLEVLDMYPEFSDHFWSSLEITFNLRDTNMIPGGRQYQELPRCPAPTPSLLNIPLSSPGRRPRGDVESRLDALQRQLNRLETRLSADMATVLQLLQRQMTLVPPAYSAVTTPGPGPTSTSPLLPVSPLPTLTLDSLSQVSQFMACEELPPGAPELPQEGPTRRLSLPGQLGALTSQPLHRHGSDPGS

Broadly, the inhibition is the relative decrease from the control value, in per cent. The low end stands for a weak effect, the high end for a strong effect.

The data set deals with hERG channel (Homo sapiens, UniProt Q12809, DEL141-380/DEL871-1005). Put plainly: in vitro. The note with it: pH 7.4.

In turn, `CCC[C@@H]1C[C@@H](C(=O)N[C@@H]([C@H]2O[C@H](SC)[C@H](O)[C@@H](O)[C@H]2O)[C@H](C)Cl)N(C)C1` [Clindamycin] had an inhibition at 100 µM of 9.2 ± 4.3%.
